No constants are given. Whether binding was seen depends on the method and setting. In cells and extracts the contact can be indirect. Some entries that bind do so weakly or less than the wild type.
Tests used:
[1] = biological target: AMPA receptor subunit GluA2 (human (endogenous in frontal cortex)) (UniProt P42262); test: co-IP; GluA2 immunoprecipitated (anti-GluA2 on sheep anti-mouse IgG Dynabeads, 30 min RT) from 400 ug human frontal cortex lysate solubilised in 1% Triton X-100 plus 1% SDS; Western blot for GluA1, GluA3, GluA4
[2] = biological target: AMPA receptor subunit GluA2 (human (endogenous in frontal cortex)) (UniProt P42262); test: co-IP; GluA2 immunoprecipitated (anti-GluA2 on sheep anti-mouse IgG Dynabeads, 30 min RT) from 400 ug human frontal cortex lysate solubilised in 1% Triton X-100 or in 1% Triton X-100 plus 0.5% SDS; Western blot for GluA1, GluA3, GluA4

Sequences of proteins named here, by UniProt entry; tags and fusion partners are left off. Residues count along the entry.
UniProt P42262, residues 25-883: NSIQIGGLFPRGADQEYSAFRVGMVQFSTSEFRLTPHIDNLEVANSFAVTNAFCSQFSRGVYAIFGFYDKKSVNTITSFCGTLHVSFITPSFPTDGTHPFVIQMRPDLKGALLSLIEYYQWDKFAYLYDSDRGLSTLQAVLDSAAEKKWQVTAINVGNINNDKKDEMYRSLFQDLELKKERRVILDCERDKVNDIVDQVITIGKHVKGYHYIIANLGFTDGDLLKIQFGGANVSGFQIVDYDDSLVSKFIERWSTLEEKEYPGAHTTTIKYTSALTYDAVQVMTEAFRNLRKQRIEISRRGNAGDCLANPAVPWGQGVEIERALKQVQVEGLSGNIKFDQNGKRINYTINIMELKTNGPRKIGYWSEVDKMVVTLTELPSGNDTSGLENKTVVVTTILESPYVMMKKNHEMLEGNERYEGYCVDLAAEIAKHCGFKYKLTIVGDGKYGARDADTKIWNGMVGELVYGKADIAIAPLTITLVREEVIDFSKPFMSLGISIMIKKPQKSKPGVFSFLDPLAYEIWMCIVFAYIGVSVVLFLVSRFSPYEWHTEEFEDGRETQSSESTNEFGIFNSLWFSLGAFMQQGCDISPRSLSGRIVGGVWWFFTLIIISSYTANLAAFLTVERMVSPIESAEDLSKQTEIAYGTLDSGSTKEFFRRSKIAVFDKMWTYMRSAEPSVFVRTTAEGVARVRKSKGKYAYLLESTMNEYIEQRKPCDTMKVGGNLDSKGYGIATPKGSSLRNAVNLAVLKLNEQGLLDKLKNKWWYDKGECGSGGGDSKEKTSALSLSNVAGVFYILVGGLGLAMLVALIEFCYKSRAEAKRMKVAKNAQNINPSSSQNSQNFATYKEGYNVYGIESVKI
UniProt P42263, residues 29-894: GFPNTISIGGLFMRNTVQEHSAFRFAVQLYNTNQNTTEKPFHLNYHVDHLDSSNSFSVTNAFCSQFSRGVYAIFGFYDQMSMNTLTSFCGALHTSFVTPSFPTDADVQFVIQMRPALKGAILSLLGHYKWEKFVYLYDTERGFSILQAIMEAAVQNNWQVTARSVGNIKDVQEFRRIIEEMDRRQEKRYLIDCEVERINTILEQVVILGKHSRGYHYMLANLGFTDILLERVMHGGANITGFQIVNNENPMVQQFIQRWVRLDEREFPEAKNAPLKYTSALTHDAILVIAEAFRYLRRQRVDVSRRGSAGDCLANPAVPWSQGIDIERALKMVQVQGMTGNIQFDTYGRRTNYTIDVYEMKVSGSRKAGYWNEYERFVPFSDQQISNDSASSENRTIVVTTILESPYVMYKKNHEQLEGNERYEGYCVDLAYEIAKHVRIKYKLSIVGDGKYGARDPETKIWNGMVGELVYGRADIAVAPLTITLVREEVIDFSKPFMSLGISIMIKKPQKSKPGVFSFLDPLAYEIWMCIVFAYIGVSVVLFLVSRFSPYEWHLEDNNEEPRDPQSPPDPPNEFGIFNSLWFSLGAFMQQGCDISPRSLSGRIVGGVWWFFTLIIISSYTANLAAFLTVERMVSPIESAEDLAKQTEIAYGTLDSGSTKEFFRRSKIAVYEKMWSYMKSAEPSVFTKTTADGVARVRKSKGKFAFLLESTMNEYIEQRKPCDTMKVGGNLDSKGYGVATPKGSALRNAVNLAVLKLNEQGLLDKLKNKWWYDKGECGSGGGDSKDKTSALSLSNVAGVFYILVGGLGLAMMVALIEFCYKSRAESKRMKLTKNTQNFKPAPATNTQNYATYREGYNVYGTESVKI
UniProt P48058, residues 21-902: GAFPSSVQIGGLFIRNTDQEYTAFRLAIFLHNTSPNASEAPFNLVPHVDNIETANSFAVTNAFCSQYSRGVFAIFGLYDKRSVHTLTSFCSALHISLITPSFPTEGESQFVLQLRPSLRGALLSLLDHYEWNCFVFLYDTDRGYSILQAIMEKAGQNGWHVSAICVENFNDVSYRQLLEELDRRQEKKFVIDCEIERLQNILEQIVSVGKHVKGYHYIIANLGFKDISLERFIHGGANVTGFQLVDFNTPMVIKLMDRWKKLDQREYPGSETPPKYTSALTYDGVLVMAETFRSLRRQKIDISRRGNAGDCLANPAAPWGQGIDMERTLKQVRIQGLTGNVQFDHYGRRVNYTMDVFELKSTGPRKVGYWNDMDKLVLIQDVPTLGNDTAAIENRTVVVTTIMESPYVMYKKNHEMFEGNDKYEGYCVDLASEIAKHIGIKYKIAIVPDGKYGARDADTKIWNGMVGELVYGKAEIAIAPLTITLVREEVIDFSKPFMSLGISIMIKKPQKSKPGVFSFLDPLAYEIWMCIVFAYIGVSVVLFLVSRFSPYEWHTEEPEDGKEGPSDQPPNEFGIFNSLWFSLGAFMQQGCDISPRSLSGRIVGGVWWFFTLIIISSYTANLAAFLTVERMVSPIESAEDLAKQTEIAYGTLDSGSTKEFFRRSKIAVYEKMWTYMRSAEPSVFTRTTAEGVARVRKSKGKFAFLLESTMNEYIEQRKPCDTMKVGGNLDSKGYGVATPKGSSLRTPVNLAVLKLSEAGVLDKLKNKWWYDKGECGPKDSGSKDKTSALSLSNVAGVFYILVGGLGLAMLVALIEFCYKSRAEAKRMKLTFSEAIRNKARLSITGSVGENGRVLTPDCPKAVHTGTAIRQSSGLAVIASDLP

| binding [2] | Substance | binding [1] |
| --- | --- | --- |
| binds | AMPA receptor subunit GluA3 (from UniProt P42263 29-894) | no binding (condition: with 1% Triton X-100 plus 1% SDS) |
| binds | AMPA receptor subunit GluA4 (from UniProt P48058 21-902) | no binding (condition: with 1% Triton X-100 plus 1% SDS) |
